# Results reported in the supplement of paper PMC12067093, “Discovery and optimisation of a covalent ligand for TRIM25 and its application to targeted protein ubiquitination” (Chemical Science, 2025).
# The chains behind the UniProt entries cited, without tags or fusion partners. Where a name states a change or a piece, a line headed by the entry shows the natural chain unless it says otherwise.
# UniProt P46100: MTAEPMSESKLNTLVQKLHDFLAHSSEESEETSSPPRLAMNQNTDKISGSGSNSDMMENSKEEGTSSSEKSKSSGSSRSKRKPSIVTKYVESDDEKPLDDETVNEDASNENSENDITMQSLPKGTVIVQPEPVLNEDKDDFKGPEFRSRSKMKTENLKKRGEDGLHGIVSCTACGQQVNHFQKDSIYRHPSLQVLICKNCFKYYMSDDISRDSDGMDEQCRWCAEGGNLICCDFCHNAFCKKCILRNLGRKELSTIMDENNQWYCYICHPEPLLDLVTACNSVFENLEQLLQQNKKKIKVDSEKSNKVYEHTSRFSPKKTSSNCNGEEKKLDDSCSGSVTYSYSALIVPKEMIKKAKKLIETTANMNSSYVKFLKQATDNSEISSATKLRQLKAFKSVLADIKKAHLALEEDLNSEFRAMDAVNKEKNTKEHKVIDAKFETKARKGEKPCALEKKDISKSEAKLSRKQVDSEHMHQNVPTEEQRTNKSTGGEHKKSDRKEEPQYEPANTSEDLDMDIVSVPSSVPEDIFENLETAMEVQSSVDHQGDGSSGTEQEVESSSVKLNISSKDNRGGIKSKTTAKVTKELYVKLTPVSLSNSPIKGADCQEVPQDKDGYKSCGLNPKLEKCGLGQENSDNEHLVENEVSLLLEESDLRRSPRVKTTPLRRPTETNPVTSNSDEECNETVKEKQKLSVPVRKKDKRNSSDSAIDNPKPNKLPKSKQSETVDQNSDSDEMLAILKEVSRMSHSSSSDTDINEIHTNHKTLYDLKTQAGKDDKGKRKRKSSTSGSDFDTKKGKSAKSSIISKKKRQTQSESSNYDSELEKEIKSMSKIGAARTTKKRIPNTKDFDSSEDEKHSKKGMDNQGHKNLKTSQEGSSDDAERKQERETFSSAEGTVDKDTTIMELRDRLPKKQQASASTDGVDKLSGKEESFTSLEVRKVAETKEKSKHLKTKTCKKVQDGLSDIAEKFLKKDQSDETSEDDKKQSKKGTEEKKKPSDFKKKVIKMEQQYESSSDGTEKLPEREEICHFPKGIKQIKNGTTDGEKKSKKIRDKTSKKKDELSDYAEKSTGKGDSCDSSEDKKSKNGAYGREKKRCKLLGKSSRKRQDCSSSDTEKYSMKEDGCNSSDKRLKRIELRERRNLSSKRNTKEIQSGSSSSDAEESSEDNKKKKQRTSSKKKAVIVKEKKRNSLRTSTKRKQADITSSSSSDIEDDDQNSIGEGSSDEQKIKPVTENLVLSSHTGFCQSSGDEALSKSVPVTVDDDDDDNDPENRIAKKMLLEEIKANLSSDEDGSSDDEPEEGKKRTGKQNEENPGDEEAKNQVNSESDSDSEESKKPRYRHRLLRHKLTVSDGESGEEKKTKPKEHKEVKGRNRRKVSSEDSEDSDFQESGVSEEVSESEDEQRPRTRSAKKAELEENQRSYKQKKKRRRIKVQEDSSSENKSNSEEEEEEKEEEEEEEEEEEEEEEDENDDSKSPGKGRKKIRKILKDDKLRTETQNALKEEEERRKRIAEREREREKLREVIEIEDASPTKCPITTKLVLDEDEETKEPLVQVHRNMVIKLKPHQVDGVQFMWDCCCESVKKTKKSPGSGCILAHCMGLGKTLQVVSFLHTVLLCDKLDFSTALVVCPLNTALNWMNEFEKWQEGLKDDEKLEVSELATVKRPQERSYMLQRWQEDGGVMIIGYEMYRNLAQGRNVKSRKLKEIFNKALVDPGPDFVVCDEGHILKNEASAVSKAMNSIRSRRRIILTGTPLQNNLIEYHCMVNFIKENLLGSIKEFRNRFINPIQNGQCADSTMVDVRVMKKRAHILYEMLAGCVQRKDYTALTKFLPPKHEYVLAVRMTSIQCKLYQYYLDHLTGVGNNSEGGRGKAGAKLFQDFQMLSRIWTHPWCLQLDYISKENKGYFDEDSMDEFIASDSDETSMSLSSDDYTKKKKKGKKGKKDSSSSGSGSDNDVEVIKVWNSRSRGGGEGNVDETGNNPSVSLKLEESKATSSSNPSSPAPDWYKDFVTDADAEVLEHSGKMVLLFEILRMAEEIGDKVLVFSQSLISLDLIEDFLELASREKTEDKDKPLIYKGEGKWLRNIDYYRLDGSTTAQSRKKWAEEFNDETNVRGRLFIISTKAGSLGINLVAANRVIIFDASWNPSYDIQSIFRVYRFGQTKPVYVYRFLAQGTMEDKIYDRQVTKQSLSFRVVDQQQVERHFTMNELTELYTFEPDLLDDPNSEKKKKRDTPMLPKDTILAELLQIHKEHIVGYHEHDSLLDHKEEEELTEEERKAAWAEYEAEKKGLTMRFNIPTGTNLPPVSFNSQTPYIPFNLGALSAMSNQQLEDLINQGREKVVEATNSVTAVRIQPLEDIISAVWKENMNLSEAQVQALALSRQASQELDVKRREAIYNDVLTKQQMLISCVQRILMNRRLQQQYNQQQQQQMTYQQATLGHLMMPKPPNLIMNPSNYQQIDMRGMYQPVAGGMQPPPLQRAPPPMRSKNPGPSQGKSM
# UniProt P31939: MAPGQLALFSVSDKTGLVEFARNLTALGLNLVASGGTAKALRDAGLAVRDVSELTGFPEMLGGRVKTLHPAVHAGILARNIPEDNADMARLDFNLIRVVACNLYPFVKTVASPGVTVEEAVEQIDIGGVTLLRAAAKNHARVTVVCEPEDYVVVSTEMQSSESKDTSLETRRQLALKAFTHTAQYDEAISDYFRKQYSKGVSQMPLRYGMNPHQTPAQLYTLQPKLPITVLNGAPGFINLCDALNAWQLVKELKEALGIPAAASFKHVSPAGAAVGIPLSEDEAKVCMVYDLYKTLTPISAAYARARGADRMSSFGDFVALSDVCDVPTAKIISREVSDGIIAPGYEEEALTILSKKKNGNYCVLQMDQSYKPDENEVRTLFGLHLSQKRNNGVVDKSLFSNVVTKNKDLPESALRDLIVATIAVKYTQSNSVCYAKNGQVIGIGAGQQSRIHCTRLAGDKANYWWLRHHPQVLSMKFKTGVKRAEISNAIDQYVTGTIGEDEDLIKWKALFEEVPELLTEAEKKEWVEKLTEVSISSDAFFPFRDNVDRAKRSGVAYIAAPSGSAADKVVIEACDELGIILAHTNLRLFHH
# UniProt O75882: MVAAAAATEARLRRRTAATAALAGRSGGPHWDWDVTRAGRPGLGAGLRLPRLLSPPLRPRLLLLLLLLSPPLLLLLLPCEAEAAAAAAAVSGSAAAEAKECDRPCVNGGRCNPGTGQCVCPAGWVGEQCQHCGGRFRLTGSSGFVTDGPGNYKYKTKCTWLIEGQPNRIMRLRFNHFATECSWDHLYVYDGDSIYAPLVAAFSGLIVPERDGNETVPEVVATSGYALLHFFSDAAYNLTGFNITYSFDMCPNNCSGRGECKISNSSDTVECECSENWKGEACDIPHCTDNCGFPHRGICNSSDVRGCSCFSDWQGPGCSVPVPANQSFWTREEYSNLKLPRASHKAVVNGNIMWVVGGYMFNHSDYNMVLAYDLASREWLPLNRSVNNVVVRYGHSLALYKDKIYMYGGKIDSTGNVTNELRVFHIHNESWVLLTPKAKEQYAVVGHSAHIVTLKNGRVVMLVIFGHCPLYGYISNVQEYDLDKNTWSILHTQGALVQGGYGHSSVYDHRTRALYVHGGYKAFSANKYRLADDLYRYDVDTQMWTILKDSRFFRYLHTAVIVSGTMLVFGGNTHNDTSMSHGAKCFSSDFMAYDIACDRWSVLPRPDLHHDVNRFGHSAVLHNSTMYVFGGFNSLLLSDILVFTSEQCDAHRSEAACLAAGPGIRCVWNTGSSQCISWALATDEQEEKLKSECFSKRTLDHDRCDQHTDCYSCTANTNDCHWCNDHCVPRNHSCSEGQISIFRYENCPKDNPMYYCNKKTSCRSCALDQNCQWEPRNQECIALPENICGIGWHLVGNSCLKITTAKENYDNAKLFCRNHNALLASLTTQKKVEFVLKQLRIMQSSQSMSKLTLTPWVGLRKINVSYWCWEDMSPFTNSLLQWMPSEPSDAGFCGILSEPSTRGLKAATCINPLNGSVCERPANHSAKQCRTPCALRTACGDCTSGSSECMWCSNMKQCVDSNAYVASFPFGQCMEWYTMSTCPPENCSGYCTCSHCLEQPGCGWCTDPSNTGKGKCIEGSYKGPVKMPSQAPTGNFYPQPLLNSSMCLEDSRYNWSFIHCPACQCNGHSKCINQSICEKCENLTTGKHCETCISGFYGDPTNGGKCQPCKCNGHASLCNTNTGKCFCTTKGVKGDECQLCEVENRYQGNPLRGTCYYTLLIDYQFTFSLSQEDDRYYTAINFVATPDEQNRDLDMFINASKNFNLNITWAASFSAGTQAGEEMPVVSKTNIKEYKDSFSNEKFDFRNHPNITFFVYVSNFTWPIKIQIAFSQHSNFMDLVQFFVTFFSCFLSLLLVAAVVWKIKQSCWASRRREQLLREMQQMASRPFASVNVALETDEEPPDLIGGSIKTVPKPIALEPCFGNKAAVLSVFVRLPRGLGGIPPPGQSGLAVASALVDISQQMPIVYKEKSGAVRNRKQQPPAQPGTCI
# UniProt O00244: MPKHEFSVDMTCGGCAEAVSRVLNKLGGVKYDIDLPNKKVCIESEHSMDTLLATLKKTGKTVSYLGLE
# UniProt Q76L83: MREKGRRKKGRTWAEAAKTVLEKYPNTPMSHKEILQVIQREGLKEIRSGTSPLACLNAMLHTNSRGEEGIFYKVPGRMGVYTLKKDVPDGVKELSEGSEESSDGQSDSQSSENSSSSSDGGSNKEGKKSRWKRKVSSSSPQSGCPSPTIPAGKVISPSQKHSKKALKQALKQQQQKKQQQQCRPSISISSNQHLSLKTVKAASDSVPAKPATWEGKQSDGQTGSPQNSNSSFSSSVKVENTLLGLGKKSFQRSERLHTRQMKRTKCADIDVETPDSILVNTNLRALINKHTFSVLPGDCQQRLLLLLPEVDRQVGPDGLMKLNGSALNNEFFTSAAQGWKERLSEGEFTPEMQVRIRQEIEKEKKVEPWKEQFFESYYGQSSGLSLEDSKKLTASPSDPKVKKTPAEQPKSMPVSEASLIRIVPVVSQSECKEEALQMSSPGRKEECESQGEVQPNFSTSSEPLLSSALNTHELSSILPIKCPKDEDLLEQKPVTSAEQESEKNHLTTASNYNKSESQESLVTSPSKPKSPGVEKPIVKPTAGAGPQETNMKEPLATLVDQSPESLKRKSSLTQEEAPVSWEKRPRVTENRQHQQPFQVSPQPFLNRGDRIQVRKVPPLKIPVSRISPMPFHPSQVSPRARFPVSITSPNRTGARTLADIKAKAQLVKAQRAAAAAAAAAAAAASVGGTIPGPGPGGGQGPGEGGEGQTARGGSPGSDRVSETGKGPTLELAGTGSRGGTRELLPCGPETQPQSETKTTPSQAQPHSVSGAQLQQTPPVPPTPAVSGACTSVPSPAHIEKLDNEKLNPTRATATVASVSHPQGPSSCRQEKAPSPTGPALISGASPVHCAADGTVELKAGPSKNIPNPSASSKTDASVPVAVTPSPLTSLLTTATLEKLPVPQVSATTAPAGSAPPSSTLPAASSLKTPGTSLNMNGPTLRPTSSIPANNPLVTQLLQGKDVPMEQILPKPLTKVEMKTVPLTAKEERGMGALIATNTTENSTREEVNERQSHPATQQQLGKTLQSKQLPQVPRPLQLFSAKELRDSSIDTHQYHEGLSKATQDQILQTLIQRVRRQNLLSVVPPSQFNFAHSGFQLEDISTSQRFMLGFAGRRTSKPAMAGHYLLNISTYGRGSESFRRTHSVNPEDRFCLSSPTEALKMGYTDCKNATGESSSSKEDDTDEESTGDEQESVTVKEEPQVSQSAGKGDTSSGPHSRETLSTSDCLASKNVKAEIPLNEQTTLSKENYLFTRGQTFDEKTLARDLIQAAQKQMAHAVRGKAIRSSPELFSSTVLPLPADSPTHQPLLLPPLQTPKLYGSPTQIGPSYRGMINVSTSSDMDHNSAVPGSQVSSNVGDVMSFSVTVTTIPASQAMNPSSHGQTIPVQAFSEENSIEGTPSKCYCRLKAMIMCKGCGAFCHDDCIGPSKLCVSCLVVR
# UniProt Q6DD88: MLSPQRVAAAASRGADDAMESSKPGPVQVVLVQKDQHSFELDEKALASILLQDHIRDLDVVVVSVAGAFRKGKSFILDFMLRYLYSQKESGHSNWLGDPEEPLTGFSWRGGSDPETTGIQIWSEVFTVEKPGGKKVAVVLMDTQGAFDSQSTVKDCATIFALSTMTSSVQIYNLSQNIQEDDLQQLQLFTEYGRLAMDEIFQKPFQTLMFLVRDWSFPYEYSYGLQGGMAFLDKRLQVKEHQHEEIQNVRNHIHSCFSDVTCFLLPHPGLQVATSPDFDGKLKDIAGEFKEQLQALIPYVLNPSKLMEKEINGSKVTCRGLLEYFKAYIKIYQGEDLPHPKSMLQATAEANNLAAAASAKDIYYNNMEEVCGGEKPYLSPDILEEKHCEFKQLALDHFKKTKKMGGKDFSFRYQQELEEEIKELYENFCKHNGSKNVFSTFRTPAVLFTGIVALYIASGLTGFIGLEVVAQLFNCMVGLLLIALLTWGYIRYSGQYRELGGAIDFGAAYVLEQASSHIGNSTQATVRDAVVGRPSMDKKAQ
# The list shows a part of the results.
# Compound: CC1Cc2ccccc2N1C(=O)C1CCCN(C1)C(=O)CCl (mixture of isomers) [TRIM25 ligand 11 (diastereomer mixture)]
# Test: probe-labelled cysteine peptide fold change vs DMSO (competition) (log2 fold change); higher = less target engagement (more negative = stronger competition)
# Conditions: THP-1, incubation time: 4 h
# 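Note: competitive chemoproteomic profiling in live THP-1 cells with an iodoacetamide desthiobiotin (IA-DTB) probe, comparing probe-labelled peptide intensities in compound-treated cells against DMSO-treated controls.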
Target,probe-labelled cysteine peptide fold change (10 µM),probe-labelled cysteine peptide fold change (50 µM)
ATP6V1B2_P21281_425_DHADVSNQLYACYAIGK (UniProt P21281),-0.00783,0.147
ATP5S_Q99766_111_IQAIDATDSCIMSIGFDHMEGLEHVEK (UniProt Q99766),-0.0321,-0.172
ATRX_P46100-6_537_GGADCQEVPQDK (UniProt P46100),-0.0702,-0.104
ATP6V1H_Q9UI12_226_FAWVEADGVNCIMGVLSNK (UniProt Q9UI12),0.279,0.447
ARRB2_P32121_126_LGQHAHPFFFTIPQNLPCSVTLQPGPEDTGK (UniProt P32121),0.104,0.102
ATRAID_Q6UW56_52_VAFYCK (UniProt Q6UW56),0.0122,0.0598
ASCC3_Q8N3C0_366_AGEDLEVSEGLMCFDPK (UniProt Q8N3C0),0.00436,-0.276
ATIC_P31939_146_VTVVCEPEDYVVVSTEMQSSESK (UniProt P31939),-0.0214,-0.177
ATP6V0D1_P61421_39_AGVLSQADYLNLVQCETLEDLK (UniProt P61421),-0.0789,0.178
ARPC2_O15144_120_NCFASVFEK (UniProt O15144),0.028,-0.00701
ATP11C_Q8NB49_214_AAIECEQPQPDLYK (UniProt Q8NB49),-0.0354,-0.0483
ASH1L_Q9NR48_157_KADDVAAIECQSEEVIR (UniProt Q9NR48),-0.205,-0.438
ATP2B1_P20020_463_HLDACETMGNATAICSDK (UniProt P20020),0.101,-0.00247
ATP13A1_Q9HD20_667_GAPETLHSMFSQCPPDYHHIHTEISR (UniProt Q9HD20),-0.044,0.0515
ATP6V1A_P38606_532_FCPFYK (UniProt P38606),0.0234,0.145
ATP6V1G1_O75348_104_DEVLDNLLAFVCDIRPEIHENYR (UniProt O75348),0.164,-0.0814
ATRN_O75882_101_ECDRPCVNGGR (UniProt O75882),0.134,0.0931
ATP13A1_Q9HD20_969+971_LSSIQCICHVIK (UniProt Q9HD20),-0.175,0.152
ASPSCR1_Q9BZE9_224+225_GDLSRPEDADTSGPCCEHTQEK (UniProt Q9BZE9),-0.0438,-0.488
ATP2A2_P16615_635_GTAVAICR (UniProt P16615),-0.0341,0.163
ATP13A1_Q9HD20_13+18_AAAAAVGNAVPCGARPCGVRPDGQPK (UniProt Q9HD20),-0.0534,-0.208

# Full records as entered above:
# ASH1L_Q9NR48_157_KADDVAAIECQSEEVIR (UniProt Q9NR48) in the list: probe-labelled cysteine peptide fold change (10 µM): -0.205; probe-labelled cysteine peptide fold change (50 µM): -0.438
# ATRAID_Q6UW56_52_VAFYCK (UniProt Q6UW56) in the list: probe-labelled cysteine peptide fold change (10 µM): 0.0122; probe-labelled cysteine peptide fold change (50 µM): 0.0598

# (cont.)

Target,probe-labelled cysteine peptide fold change (10 µM),probe-labelled cysteine peptide fold change (50 µM)
ATG9A_Q7Z3C6_122_VTLPDAFLPAQVCSAR (UniProt Q7Z3C6),0.159,0.293
ATP1B1_P05026_126_DSAQRDDMIFEDCGDVPSEPK (UniProt P05026),-0.147,-0.244
ATL2_Q8NHH9_59_KPCPVQIVLAHEDDHNFELDEEALEQILLQEHIR (UniProt Q8NHH9),0.102,-0.12
ATP2A2_P16615_364_TGTLTTNQMSVCR (UniProt P16615),-0.0905,0.0925
ATN1_P54259_851_APVECPSLGPVPHRPPFEPGSAVATVPPYLGPDTPALR (UniProt P54259),-0.264,-0.181
ATP9B_O43861_551_AIVLCHNVTPVYESR (UniProt O43861),0.0569,-0.164
ATP6V0A2_Q9Y487_58_RCEELER (UniProt Q9Y487),0.15,0.179
ATP13A3_Q9H7F0_545_SQFVACMATCHSLTK (UniProt Q9H7F0),0.00992,0.0114
ATIC_P31939_363_NGNYCVLQMDQSYKPDENEVR (UniProt P31939),-0.026,0.0213
ATP1B1_P05026_213_YNPNVLPVQCTGK (UniProt P05026),0.107,0.0303
ATP2A3_Q93084_471_AGACNTVIK (UniProt Q93084),-0.0532,-0.0445
ASNSD1_Q9NWL6_378_CEIPSEEFSK (UniProt Q9NWL6),0.245,0.181
ATOX1_O00244_12_PKHEFSVDMTCGGCAEAVSR (UniProt O00244),-0.204,0.25
ASTE1_Q2TB18_640_QNTSCSK (UniProt Q2TB18),-0.089,-0.125
ASAP1_Q9ULH1_652_QTALGNTVLHYCSMYSKPECLK (UniProt Q9ULH1),0.0362,0.157
ATP6V1G1_O75348_69_GSCSTEVEK (UniProt O75348),-0.239,-0.244
ASAP1_Q9ULH1_219_LFQLQMCEYLIK (UniProt Q9ULH1),0.00821,0.276
ASXL2_Q76L83_299_HTFSVLPGDCQQR (UniProt Q76L83),0.0929,-0.0666
ATAD1_Q8NBU5_137_GVLLYGPPGCGK (UniProt Q8NBU5),0.0242,-0.0414
ATP2C1_P98194_162_DLVPGDTVCLSVGDRVPADLR (UniProt P98194),-0.0916,-0.115
ATP1A1_P05023_249_NIAFFSTNCVEGTAR (UniProt P05023),-0.0568,-0.0911

Target,probe-labelled cysteine peptide fold change (10 µM),probe-labelled cysteine peptide fold change (50 µM)
ATRX_P46100_1026_MEQQYESSSDGTEKLPEREEICHFPK (UniProt P46100),-0.145,-0.342
ATL3_Q6DD88_371_DIYYNNMEEVCGGEK (UniProt Q6DD88),0.081,-0.0128
ATP1A1_P05023_464_CIELCCGSVK (UniProt P05023),-0.142,-0.0156
ATP2A2_P16615_471_ANACNSVIK (UniProt P16615),-0.15,-0.036
ATP1B3_P54709_250_EVTVECK (UniProt P54709),-0.00132,0.0886
ATP6V1H_Q9UI12_73_QEMLQTEGSQCAK (UniProt Q9UI12),-0.154,-0.0754
ATP6V0D1_P61421_209_FCTLLGGTTADAMCPILEFEADRR (UniProt P61421),0.39,0.316
ATP6V0A1_Q93050_247_ASLYPCPETPQER (UniProt Q93050),0.00995,0.00784
ASXL2_Q76L83_827_ATATVASVSHPQGPSSCR (UniProt Q76L83),0.237,0.075
ASPH_Q12797_685_YSIMHPGTHVWPHTGPTNCR (UniProt Q12797),-0.0275,-0.00213
ATP6V0A1_Q93050_310_AIYHTLNLCNIDVTQK (UniProt Q93050),0.176,0.149
ASAP1_Q9ULH1_373_LNLLTCQVKPNAEDKK (UniProt Q9ULH1),-0.0328,-0.0217
ATP2A3_Q93084_581_KEDMELDDCSK (UniProt Q93084),-0.00739,-0.197
ATP6V0A2_Q9Y487_323_CLIAEVWCPEADLQDLRR (UniProt Q9Y487),0.171,0.192
ATM_Q13315_564_MGIEQNMCEVNR (UniProt Q13315),-0.2,-0.34
ASPH_Q12797_660_FPETTGCR (UniProt Q12797),0.049,-0.0334
ATM_Q13315_2770_SGVLEWCTGTVPIGEFLVNNEDGAHKR (UniProt Q13315),-0.159,0.0356
ATG7_O95352_368_CLLLGAGTLGCNVAR (UniProt O95352),0.0347,-0.0203
ATP13A1_Q9HD20_18_AAAAAVGNAVPCGARPCGVRPDGQPK (UniProt Q9HD20),-0.133,-0.18
ARRB1_P49407_140_ACGVDYEVK (UniProt P49407),-0.0906,-0.209
ATM_Q13315_2112_NMQWDHCTSVSK (UniProt Q13315),-0.0329,-0.222

Target,probe-labelled cysteine peptide fold change (10 µM),probe-labelled cysteine peptide fold change (50 µM)
ATP8B2_P98198_426_CSINGHSYGDVFDVLGHK (UniProt P98198),0.322,0.326
ATL3_Q6DD88_429_ELYENFCK (UniProt Q6DD88),0.089,0.00288
ATP13A1_Q9HD20_971_LSSIQCICHVIK (UniProt Q9HD20),-0.0776,0.0157
ATAD2_Q6PL18_1057_DIDLICSNALEYNPDRDPGDR (UniProt Q6PL18),0.101,-0.0131
ATIC_P31939_287_VCMVYDLYK (UniProt P31939),0.0131,0.0482
ATAD2_Q6PL18_649_SICAEAALCALR (UniProt Q6PL18),-0.00173,0.0507
ATPAF1_Q5TC12_321_CAQNQNKT (UniProt Q5TC12),-0.189,-0.217
ASMTL_O95671_546_VAESCKPGAGLLLVETLLDEEKR (UniProt O95671),-0.0267,-0.218
ASB3_Q9Y575_295_VSPVYSAVFGGHEDCLEILLR (UniProt Q9Y575),0.121,0.0802
ARRB2_P32121_270_CPVAQLEQDDQVSPSSTFCK (UniProt P32121),0.677,0.57
ASB1_Q9Y576_36_EQFCDHPLEHCEDTR (UniProt Q9Y576),0.123,-0.0882
ASPH_Q12797_384_AQCEDDLAEK (UniProt Q12797),0.021,0.0357
ATP2B4_P23634_24_EGDFGCTVMELR (UniProt P23634),-0.0564,-0.213
ASCC3_Q8N3C0_208_FLNEHLQEACTPELKPVEK (UniProt Q8N3C0),-0.0159,-0.085
ATRN_O75882_1361_PIALEPCFGNK (UniProt O75882),0.0504,-0.0913
ARV1_Q9H2C2_30_GNVDGVAATPTAASASCQYR (UniProt Q9H2C2),0.186,0.0212
ATIC_P31939_575_VVIEACDELGIILAHTNLR (UniProt P31939),0.0127,0.0172
ATG16L2_Q8NAA4_319_YQIIPVCVAAR (UniProt Q8NAA4),-0.106,-0.0055
ATP2A2_P16615_560_CLALATHDNPLR (UniProt P16615),0.0746,-0.0253
ATM_Q13315_755_SLMQCAGESITLFK (UniProt Q13315),0.103,0.136

# Reformatted with tabs: entries from further up
Target	probe-labelled cysteine peptide fold change (10 µM)	probe-labelled cysteine peptide fold change (50 µM)
ATRX_P46100-6_537_GGADCQEVPQDK (UniProt P46100)	-0.0702	-0.104
ASAP1_Q9ULH1_219_LFQLQMCEYLIK (UniProt Q9ULH1)	0.00821	0.276
ASB1_Q9Y576_36_EQFCDHPLEHCEDTR (UniProt Q9Y576)	0.123	-0.0882
